{"source": "PubChem BioAssay AID1224828 (NIAID, 2016)", "test": "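Find genes required for NF-kappaB p65 moving into the nucleus after LPS in mouse macrophages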 (primary screen)", "system": "mouse RAW264.7 G9 macrophage reporter cells (GFP-p65, Tnf promoter-mCherry)", "reagents": "siRNA pool against mouse genes, 100 nM", "time to read-out": "2 days siRNA transfection, then 40 min LPS before fixation", "treatment": "LPS (Salmonella minnesota R595) at 10 ng/ml", "read-out": "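Microscopy ratio of nuclear to perinuclear-ring GFP-p65 signal, scaled to the plate median; gene score is the average of two replicate robust z-scores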", "scale": "p65 translocation robust z-score: higher = more nuclear NF-kappaB p65 after LPS than the plate median; nuclear/cytoplasmic p65 ratio: higher = more nuclear NF-kappaB p65", "call rule": "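Called active when z exceeds 3.3 or falls under -1.56 (median of Tlr4 controls), giving activity score of at least 50; no calls for control wells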", "calls": "active = hit (p65 shift raised or lowered); inactive = no clear change", "note": "Shown is one part, drawn at random, of about 17,000 reagents. 762 of all reagents (4.5%) count as active. 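Active calls include both raised and lowered p65 entry, mostly lowered; wells with fewer than 50 cells lack a z-score.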 Raw values are not corrected between plates. A number with no mark means an inactive call."}
{"target gene":"Serpinb9 (GeneID 20723)","PubChem SID":"SID315469419","p65 translocation robust z-score":-0.99,"nuclear/cytoplasmic p65 ratio, rep 1":1.44,"nuclear/cytoplasmic p65 ratio, rep 2":1.38,"low cell count flag":"enough cells to score"}
{"target gene":"Ehd3 (GeneID 57440)","PubChem SID":"SID315471793","p65 translocation robust z-score":-1.09,"nuclear/cytoplasmic p65 ratio, rep 1":1.28,"nuclear/cytoplasmic p65 ratio, rep 2":1.26,"low cell count flag":"enough cells to score"}
{"target gene":"Arfrp1 (GeneID 76688)","PubChem SID":"SID315475363","p65 translocation robust z-score":-0.68,"nuclear/cytoplasmic p65 ratio, rep 1":1.43,"nuclear/cytoplasmic p65 ratio, rep 2":1.6,"low cell count flag":"enough cells to score"}
{"target gene":"Hoxa2 (GeneID 15399)","PubChem SID":"SID315467251","p65 translocation robust z-score":1.88,"nuclear/cytoplasmic p65 ratio, rep 1":1.63,"nuclear/cytoplasmic p65 ratio, rep 2":1.67,"low cell count flag":"enough cells to score"}
{"target gene":"Atf5 (GeneID 107503)","PubChem SID":"SID315476608","p65 translocation robust z-score":0.7,"nuclear/cytoplasmic p65 ratio, rep 1":1.84,"nuclear/cytoplasmic p65 ratio, rep 2":1.61,"low cell count flag":"enough cells to score"}
{"target gene":"Med23 (GeneID 70208)","PubChem SID":"SID315473989","p65 translocation robust z-score":-1.49,"nuclear/cytoplasmic p65 ratio, rep 1":1.32,"nuclear/cytoplasmic p65 ratio, rep 2":1.15,"low cell count flag":"enough cells to score"}
{"target gene":"Trav7d-6 (GeneID 320734)","PubChem SID":"SID315481385","p65 translocation robust z-score":1.23,"nuclear/cytoplasmic p65 ratio, rep 1":1.73,"nuclear/cytoplasmic p65 ratio, rep 2":2.04,"low cell count flag":"enough cells to score"}
{"target gene":"Hspa4 (GeneID 15525)","PubChem SID":"SID315467329","p65 translocation robust z-score":0.74,"nuclear/cytoplasmic p65 ratio, rep 1":1.52,"nuclear/cytoplasmic p65 ratio, rep 2":1.26,"low cell count flag":"enough cells to score"}
{"target gene":"Or56b35 (GeneID 258745)","PubChem SID":"SID315480394","nuclear/cytoplasmic p65 ratio, rep 1":1.35,"nuclear/cytoplasmic p65 ratio, rep 2":1.16,"low cell count flag":"fewer than 50 cells per well; well left out of scoring"}
{"target gene":"Cwc22 (GeneID 80744)","PubChem SID":"SID315475716","p65 translocation robust z-score":-0.12,"nuclear/cytoplasmic p65 ratio, rep 1":1.51,"nuclear/cytoplasmic p65 ratio, rep 2":1.88,"low cell count flag":"enough cells to score"}

An excerpt from the list above, as a working copy:
{"target gene":"Hspa4 (GeneID 15525)","PubChem SID":"SID315467329","p65 translocation robust z-score":0.74,"nuclear/cytoplasmic p65 ratio, rep 1":1.52,"nuclear/cytoplasmic p65 ratio, rep 2":1.26,"low cell count flag":"enough cells to score"}
{"target gene":"Or56b35 (GeneID 258745)","PubChem SID":"SID315480394","nuclear/cytoplasmic p65 ratio, rep 1":1.35,"nuclear/cytoplasmic p65 ratio, rep 2":1.16,"low cell count flag":"fewer than 50 cells per well; well left out of scoring"}

The list goes on:
{"target gene":"Nipsnap1 (GeneID 18082)","PubChem SID":"SID315468178","p65 translocation robust z-score":1.86,"nuclear/cytoplasmic p65 ratio, rep 1":2.16,"nuclear/cytoplasmic p65 ratio, rep 2":1.67,"low cell count flag":"enough cells to score"}
{"target gene":"Zkscan2 (GeneID 210162)","PubChem SID":"SID315477634","nuclear/cytoplasmic p65 ratio, rep 1":1.22,"nuclear/cytoplasmic p65 ratio, rep 2":1.31,"low cell count flag":"fewer than 50 cells per well; well left out of scoring"}
{"target gene":"Pabir1 (GeneID 68034)","PubChem SID":"SID315473376","nuclear/cytoplasmic p65 ratio, rep 1":1.16,"nuclear/cytoplasmic p65 ratio, rep 2":1.14,"low cell count flag":"fewer than 50 cells per well; well left out of scoring"}
{"target gene":"Ucn (GeneID 22226)","PubChem SID":"SID315469920","p65 translocation robust z-score":-0.5,"nuclear/cytoplasmic p65 ratio, rep 1":1.57,"nuclear/cytoplasmic p65 ratio, rep 2":1.32,"low cell count flag":"enough cells to score"}
{"target gene":"Mapk8ip3 (GeneID 30957)","PubChem SID":"SID315470790","p65 translocation robust z-score":-0.72,"nuclear/cytoplasmic p65 ratio, rep 1":1.9,"nuclear/cytoplasmic p65 ratio, rep 2":1.28,"low cell count flag":"enough cells to score"}
{"target gene":"Mta1 (GeneID 116870)","PubChem SID":"SID315477066","p65 translocation robust z-score":-0.08,"nuclear/cytoplasmic p65 ratio, rep 1":1.37,"nuclear/cytoplasmic p65 ratio, rep 2":1.39,"low cell count flag":"enough cells to score"}
{"target gene":"Lmbrd2 (GeneID 320506)","PubChem SID":"SID315481329","p65 translocation robust z-score":2.59,"nuclear/cytoplasmic p65 ratio, rep 1":1.82,"nuclear/cytoplasmic p65 ratio, rep 2":1.87,"low cell count flag":"enough cells to score"}
{"target gene":"Wdr18 (GeneID 216156)","PubChem SID":"SID315477980","p65 translocation robust z-score":1.57,"nuclear/cytoplasmic p65 ratio, rep 1":1.53,"nuclear/cytoplasmic p65 ratio, rep 2":1.5,"low cell count flag":"enough cells to score"}
{"target gene":"Ergic3 (GeneID 66366)","PubChem SID":"SID315472391","nuclear/cytoplasmic p65 ratio, rep 1":1.35,"nuclear/cytoplasmic p65 ratio, rep 2":1.16,"low cell count flag":"fewer than 50 cells per well; well left out of scoring"}
{"target gene":"Zfp36 (GeneID 22695)","PubChem SID":"SID315470113","p65 translocation robust z-score":0.48,"nuclear/cytoplasmic p65 ratio, rep 1":1.5,"nuclear/cytoplasmic p65 ratio, rep 2":1.28,"low cell count flag":"enough cells to score"}
{"target gene":"Cyp4f39 (GeneID 320997)","PubChem SID":"SID315481431","nuclear/cytoplasmic p65 ratio, rep 1":1.24,"nuclear/cytoplasmic p65 ratio, rep 2":1.3,"low cell count flag":"fewer than 50 cells per well; well left out of scoring"}
